Results: article PMC10771418
These are yes or no findings as the source states them, for the method shown. Binding seen in cells or lysates may run through a third protein. Some binding calls cover weakened binding; strength is not graded here.

By UniProt entry, the sequences of proteins in these tests, tags left out. Residues count along the entry.
UniProt Q86WV6: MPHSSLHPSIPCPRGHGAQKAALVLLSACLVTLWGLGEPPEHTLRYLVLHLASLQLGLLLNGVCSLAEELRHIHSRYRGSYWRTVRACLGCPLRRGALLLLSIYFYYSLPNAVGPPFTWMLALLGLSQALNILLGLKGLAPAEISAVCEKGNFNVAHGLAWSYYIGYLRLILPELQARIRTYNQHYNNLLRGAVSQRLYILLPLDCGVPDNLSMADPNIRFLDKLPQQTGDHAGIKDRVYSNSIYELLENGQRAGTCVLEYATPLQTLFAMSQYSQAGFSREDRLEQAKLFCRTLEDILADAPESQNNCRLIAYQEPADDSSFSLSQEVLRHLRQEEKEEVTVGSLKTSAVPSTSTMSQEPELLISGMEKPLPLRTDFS
UniProt Q7Z434: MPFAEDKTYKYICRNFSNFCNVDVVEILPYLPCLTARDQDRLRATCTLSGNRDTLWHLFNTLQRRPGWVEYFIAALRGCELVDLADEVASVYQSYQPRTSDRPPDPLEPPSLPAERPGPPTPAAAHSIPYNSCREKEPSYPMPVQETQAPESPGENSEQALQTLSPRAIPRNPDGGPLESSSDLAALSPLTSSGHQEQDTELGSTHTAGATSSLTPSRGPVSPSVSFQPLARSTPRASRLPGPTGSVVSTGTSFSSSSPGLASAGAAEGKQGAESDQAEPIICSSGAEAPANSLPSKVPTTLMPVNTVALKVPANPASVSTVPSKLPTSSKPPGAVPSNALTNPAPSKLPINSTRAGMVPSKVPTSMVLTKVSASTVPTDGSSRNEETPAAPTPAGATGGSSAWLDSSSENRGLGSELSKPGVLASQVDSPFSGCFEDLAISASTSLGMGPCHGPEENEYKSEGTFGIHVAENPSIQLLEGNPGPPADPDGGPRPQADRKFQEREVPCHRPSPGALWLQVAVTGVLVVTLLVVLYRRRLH
UniProt P09259, residues 31-623: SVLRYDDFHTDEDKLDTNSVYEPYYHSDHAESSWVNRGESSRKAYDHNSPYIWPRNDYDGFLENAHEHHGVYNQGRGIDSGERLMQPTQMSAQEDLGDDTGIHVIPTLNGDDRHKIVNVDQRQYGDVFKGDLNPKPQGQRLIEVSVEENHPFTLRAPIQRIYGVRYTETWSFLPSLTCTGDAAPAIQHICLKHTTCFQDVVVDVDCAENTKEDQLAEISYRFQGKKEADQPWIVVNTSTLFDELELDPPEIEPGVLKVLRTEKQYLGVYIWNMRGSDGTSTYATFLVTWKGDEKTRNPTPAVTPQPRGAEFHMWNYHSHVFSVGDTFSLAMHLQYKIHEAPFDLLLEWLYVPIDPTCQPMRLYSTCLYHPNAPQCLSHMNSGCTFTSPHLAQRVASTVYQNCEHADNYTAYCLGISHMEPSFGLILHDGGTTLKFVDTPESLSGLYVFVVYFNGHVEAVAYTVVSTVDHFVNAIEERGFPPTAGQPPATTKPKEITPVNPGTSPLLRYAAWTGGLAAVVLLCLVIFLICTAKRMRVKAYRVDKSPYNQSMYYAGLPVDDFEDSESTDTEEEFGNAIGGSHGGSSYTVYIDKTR

Key:
STING-HA = STING-HA (UniProt Q86WV6); experiment: co-IP; HEK293T transfected with VZV gE and STING-HA, MAVS-MYC or MAVSΔTM-MYC plasmids for 24 h; lysate precipitated by the tag (anti-MYC for MAVS); blots with anti-gE and anti-HA or anti-MYC
MAVS-MYC = MAVS-MYC (UniProt Q7Z434); experiment: as above

“Varicella zoster virus glycoprotein E (from UniProt P09259 31-623)” was tested, and the binding (STING-HA) was “binds” and the binding (MAVS-MYC) was “binds”.
